Measured data: PubChem BioAssay AID1224828 (NIAID, 2016)
The deposit covers about 17,000 reagents; below is a part drawn at random. Of all reagents, 762 (4.5%) are marked active. 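Active calls include both raised and lowered p65 entry, mostly lowered; wells with fewer than 50 cells lack a z-score.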 The raw values are shown without normalisation.

Aim: 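Regulators linking TLR4 signalling to p65 nuclear translocation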 (primary screen)
Cells: mouse RAW264.7 G9 macrophage reporter cells (GFP-p65, Tnf promoter-mCherry)
Knock-down reagent: siRNA pool against mouse genes, 100 nM
Duration: 2 days siRNA transfection, then 40 min LPS before fixation
Treatment: LPS (Salmonella minnesota R595) at 10 ng/ml
Detection: 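Microscopy ratio of nuclear to perinuclear-ring GFP-p65 signal, scaled to the plate median; gene score is the average of two replicate robust z-scores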
Direction: p65 translocation robust z-score: higher = more nuclear NF-kappaB p65 after LPS than the plate median; nuclear/cytoplasmic p65 ratio: higher = more nuclear NF-kappaB p65
Hit rule: 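Called active when z exceeds 3.3 or falls under -1.56 (median of Tlr4 controls), giving activity score of at least 50; no calls for control wells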
Calls: active = hit (p65 shift raised or lowered); inactive = no clear change

{"gene": "She", "p65 translocation robust z-score": 0.22, "nuclear/cytoplasmic p65 ratio, rep 1": 1.43, "nuclear/cytoplasmic p65 ratio, rep 2": 1.6, "low cell count flag": "enough cells to score", "Call": "inactive"}
{"gene": "Ogfod1", "nuclear/cytoplasmic p65 ratio, rep 1": 1.4, "nuclear/cytoplasmic p65 ratio, rep 2": 1.68, "low cell count flag": "fewer than 50 cells per well; well left out of scoring", "Call": "inactive"}
{"gene": "Or1b1", "nuclear/cytoplasmic p65 ratio, rep 1": 1.44, "nuclear/cytoplasmic p65 ratio, rep 2": 1.38, "low cell count flag": "fewer than 50 cells per well; well left out of scoring", "Call": "inactive"}
{"gene": "Uxt", "p65 translocation robust z-score": -0.2, "nuclear/cytoplasmic p65 ratio, rep 1": 1.37, "nuclear/cytoplasmic p65 ratio, rep 2": 1.2, "low cell count flag": "enough cells to score", "Call": "inactive"}
{"gene": "Or4k35", "p65 translocation robust z-score": 1.99, "nuclear/cytoplasmic p65 ratio, rep 1": 1.91, "nuclear/cytoplasmic p65 ratio, rep 2": 1.69, "low cell count flag": "enough cells to score", "Call": "inactive"}
{"gene": "Dcakd", "p65 translocation robust z-score": 0.97, "nuclear/cytoplasmic p65 ratio, rep 1": 1.51, "nuclear/cytoplasmic p65 ratio, rep 2": 1.73, "low cell count flag": "enough cells to score", "Call": "inactive"}
{"gene": "Mrpl42", "nuclear/cytoplasmic p65 ratio, rep 1": 1.12, "nuclear/cytoplasmic p65 ratio, rep 2": 1.31, "low cell count flag": "fewer than 50 cells per well; well left out of scoring", "Call": "inactive"}
{"gene": "Pde2a", "p65 translocation robust z-score": 0.49, "nuclear/cytoplasmic p65 ratio, rep 1": 1.56, "nuclear/cytoplasmic p65 ratio, rep 2": 1.43, "low cell count flag": "enough cells to score", "Call": "inactive"}
{"gene": "Eif5b", "p65 translocation robust z-score": -0.62, "nuclear/cytoplasmic p65 ratio, rep 1": 1.3, "nuclear/cytoplasmic p65 ratio, rep 2": 1.29, "low cell count flag": "enough cells to score", "Call": "inactive"}
{"gene": "Myl12a", "p65 translocation robust z-score": -1.95, "nuclear/cytoplasmic p65 ratio, rep 1": 1.04, "nuclear/cytoplasmic p65 ratio, rep 2": 1.03, "low cell count flag": "enough cells to score", "Call": "active"}
{"gene": "Or6c2", "p65 translocation robust z-score": -0.47, "nuclear/cytoplasmic p65 ratio, rep 1": 1.36, "nuclear/cytoplasmic p65 ratio, rep 2": 1.21, "low cell count flag": "enough cells to score", "Call": "inactive"}
{"gene": "Adora2a", "p65 translocation robust z-score": 0.5, "nuclear/cytoplasmic p65 ratio, rep 1": 1.58, "nuclear/cytoplasmic p65 ratio, rep 2": 1.65, "low cell count flag": "enough cells to score", "Call": "inactive"}

Reagents above marked active (1):
{"gene": "Myl12a", "p65 translocation robust z-score": -1.95, "nuclear/cytoplasmic p65 ratio, rep 1": 1.04, "nuclear/cytoplasmic p65 ratio, rep 2": 1.03, "low cell count flag": "enough cells to score", "Call": "active"}

Continued.
{"gene": "Spred2", "p65 translocation robust z-score": 2.24, "nuclear/cytoplasmic p65 ratio, rep 1": 1.7, "nuclear/cytoplasmic p65 ratio, rep 2": 1.5, "low cell count flag": "enough cells to score", "Call": "inactive"}
{"gene": "Vmn1r56", "p65 translocation robust z-score": 0.13, "nuclear/cytoplasmic p65 ratio, rep 1": 1.39, "nuclear/cytoplasmic p65 ratio, rep 2": 1.25, "low cell count flag": "enough cells to score", "Call": "inactive"}
{"gene": "Vmn1r178", "p65 translocation robust z-score": 2.93, "nuclear/cytoplasmic p65 ratio, rep 1": 1.77, "nuclear/cytoplasmic p65 ratio, rep 2": 1.3, "low cell count flag": "enough cells to score", "Call": "inactive"}
{"gene": "Klra19", "p65 translocation robust z-score": -1.47, "nuclear/cytoplasmic p65 ratio, rep 1": 1.26, "nuclear/cytoplasmic p65 ratio, rep 2": 1.2, "low cell count flag": "enough cells to score", "Call": "inactive"}
{"gene": "Ggh", "p65 translocation robust z-score": 0.8, "nuclear/cytoplasmic p65 ratio, rep 1": 1.55, "nuclear/cytoplasmic p65 ratio, rep 2": 1.46, "low cell count flag": "enough cells to score", "Call": "inactive"}
{"gene": "Rbm26", "p65 translocation robust z-score": -0.44, "nuclear/cytoplasmic p65 ratio, rep 1": 1.34, "nuclear/cytoplasmic p65 ratio, rep 2": 1.8, "low cell count flag": "enough cells to score", "Call": "inactive"}
{"gene": "Akr1d1", "p65 translocation robust z-score": 0.15, "nuclear/cytoplasmic p65 ratio, rep 1": 1.64, "nuclear/cytoplasmic p65 ratio, rep 2": 1.64, "low cell count flag": "enough cells to score", "Call": "inactive"}
{"gene": "Rras", "p65 translocation robust z-score": -0.09, "nuclear/cytoplasmic p65 ratio, rep 1": 1.45, "nuclear/cytoplasmic p65 ratio, rep 2": 1.56, "low cell count flag": "enough cells to score", "Call": "inactive"}
{"gene": "Gbp4", "p65 translocation robust z-score": 1.03, "nuclear/cytoplasmic p65 ratio, rep 1": 1.93, "nuclear/cytoplasmic p65 ratio, rep 2": 1.76, "low cell count flag": "enough cells to score", "Call": "inactive"}
